Laboratory results taken from paper PMC6837540.
No constants are given. Whether binding was seen depends on the method and setting. Binding seen in cells or lysates may run through a third protein. These calls come from enrichment with a bait or labelling near it, and not all partners need be listed.

Protein sequences, listed by entry. Tags and fused reporters are not part of them. Lines headed by an entry give the natural chain unless they say otherwise; changes in a name come on top. Residues count along the entry.
UniProt Q15843, residues 1-76: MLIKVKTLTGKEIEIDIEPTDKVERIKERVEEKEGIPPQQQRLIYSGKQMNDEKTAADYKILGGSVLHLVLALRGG
UniProt Q8IIJ6: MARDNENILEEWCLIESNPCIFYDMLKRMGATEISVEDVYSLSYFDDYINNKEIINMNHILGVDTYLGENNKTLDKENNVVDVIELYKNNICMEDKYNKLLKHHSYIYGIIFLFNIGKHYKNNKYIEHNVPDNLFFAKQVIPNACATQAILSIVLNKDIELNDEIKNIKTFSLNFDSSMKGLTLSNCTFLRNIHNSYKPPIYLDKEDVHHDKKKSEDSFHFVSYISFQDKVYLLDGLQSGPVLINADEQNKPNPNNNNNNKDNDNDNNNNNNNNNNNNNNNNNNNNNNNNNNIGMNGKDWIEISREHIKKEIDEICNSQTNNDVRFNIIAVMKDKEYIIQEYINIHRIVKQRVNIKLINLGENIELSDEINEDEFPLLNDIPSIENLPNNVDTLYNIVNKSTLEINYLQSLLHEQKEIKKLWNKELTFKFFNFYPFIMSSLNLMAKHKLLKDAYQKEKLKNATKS

B1: PfUCHL3 (enzyme, UniProt Q8IKM8 1-232)
chain: MAKNDIWTPLESNPDSLYLYSCKLGQSKLKFVDIYGFNNDLLDMIPQPVQAVIFLYPVNDNIVSENNTNDKHNLKENFDNVWFIKQYIPNSCGTIALLHLYGNLRNKFELDKDSVLDDFFNKVNEMSAEKRGQELKNNKSIENLHHEFCGQVENRDDILDVDTHFIVFVQIEGKIIELDGRKDHPTVHCFTNGDNFLYDTGKIIQDKFIEKCKDDLRFSALAVIPNDNFDII

Target: FLAG-HsNedd8-VS (human) (UniProt Q15843)
Experiment: affinity purification with mass spectrometry; only the target purified

Row | Molecule | binding
1 | PfUCH37 (from UniProt Q8IIJ6) (enzyme) | binds
2 | B1 | binds
